PubChem BioAssay AID652272, Drosophila RNAi Screening Center – 2013

Purpose: 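Genes whose knock-down decreases or increases Hedgehog reporter output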 (primary screen)
Cells: Drosophila clone 8 (Cl8) cells
Knock-down reagent: long dsRNA against Drosophila genes
Detection: 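Plate reader light from a firefly reporter under a ptc promoter fragment that responds to Hedgehog, with Renilla light as transfection reference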
Reading the numbers: firefly Hh reporter signal: higher = more ptc reporter light; Renilla reference signal: higher = more Renilla control light
Rule for the call: 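Called a hit if the two-replicate mean z-score lies below -2 or above +3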
Calls: active = hit: reporter lowered or raised; inactive = not a hit
The screen tested about 21,000 reagents; this is an unselected part of those that have a named target and a result. Of all reagents, 503 (2.4%) are marked active. 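Raw plate light values, not normalised; calls rest on replicate z-scores that were not deposited; hits include reporter decreases as well as increases.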 Unmarked entries are inactive. Not stated in the record: the amount of reagent, the time to read-out.

| Gene | DRSC id | firefly Hh reporter signal, replicate 1 | firefly Hh reporter signal, replicate 2 | firefly Hh reporter signal, replicate 3 | Renilla reference signal, replicate 1 | Renilla reference signal, replicate 2 |
| --- | --- | --- | --- | --- | --- | --- |
| CG32163 (GeneID 317891) | DRSC09442 | 5.98e5 | 3.79e5 | 81031 | 3568 | 8609 |
| anchor (GeneID 39965) | DRSC10861 | 93883 | 66246 | – | 4091 | 2749 |
| CG31809 (GeneID 318954) | DRSC01561 | 97802 | 2.67e5 | – | 2996 | 11988 |
| kay (GeneID 3772082) | DRSC13962 | 56121 | 2.58e5 | – | 12940 | 6010 |
| kay (GeneID 3772082) | DRSC15048 | 33080 | 24043 | – | 904 | 860 |
| kay (GeneID 3772082) | DRSC16977 | 54322 | 46368 | – | 1574 | 1463 |
| Ilp2 (GeneID 39150) | DRSC10968 | 1.18e5 | 43751 | – | 5040 | 1388 |
| CG32582 (retired record) (GeneID 318099) | DRSC19114 | 6.67e5 | 2.10e5 | – | 38560 | 5868 |
| koi (GeneID 35594) | DRSC04980 | 80204 | 65744 | – | 1837 | 4584 |
| koi (GeneID 35594) | DRSC04991 | 1.04e5 | 64372 | – | 2626 | 4811 |
| CG6610 (GeneID 38693) | DRSC10674 | 77291 | 43417 | – | 9284 | 3493 |

Individual results from the list.
For “Renilla reference signal, replicate 1”, CG32163 (GeneID 317891) [DRSC09442] is entered as 3568
koi (GeneID 35594) [DRSC04980], firefly Hh reporter signal, replicate 2 = 65744

Further reagents follow:
| Gene | DRSC id | firefly Hh reporter signal, replicate 1 | firefly Hh reporter signal, replicate 2 | firefly Hh reporter signal, replicate 3 | Renilla reference signal, replicate 1 | Renilla reference signal, replicate 2 |
| --- | --- | --- | --- | --- | --- | --- |
| CG15022 (GeneID 38549) | DRSC08476 | 50215 | 54758 | – | 8064 | 4209 |
| CG18745 (GeneID 59141) | DRSC15382 | 55093 | 93787 | – | 1824 | 3155 |
| CG9582 (GeneID 34230) | DRSC03267 | 66547 | 48293 | – | 1504 | 4183 |
| CG31279 (GeneID 318657) | DRSC13158 | 50519 | 2.56e5 | – | 10836 | 5258 |
| ApepP (GeneID 35029) | DRSC01866 | 76448 | 61826 | – | 2731 | 2278 |
| CG14280 (GeneID 42312) | DRSC14761 | 6.09e5 | 68704 | – | 31145 | 2026 |
| Eig71Eh (GeneID 39709) | DRSC11155 | 1.70e5 | – | – | 6169 | 5236 |
| CG17187 (GeneID 41351) | DRSC15181 | 60992 | 1.30e5 | – | 2640 | 3893 |
| CG13613 (GeneID 42910) | DRSC14616 | 4.69e5 | 99265 | – | 22724 | 3234 |
| Dsor1 (GeneID 31872) | DRSC18462 | 1.02e5 | 79840 | – | 2224 | 1756 |
| CG5521 (GeneID 43242) | DRSC15828 | 81435 | 76912 | – | 2634 | 1985 |
| Lasp (GeneID 39864) | DRSC10379 | 72201 | – | – | 1600 | 3497 |
